Results are given in words; binding and its absence hold for the method and conditions named. Binding seen in cells or lysates may run through a third protein. A yes stands for co-enrichment or nearness to the bait. Other partners may have been found.
B1: PPM1B (Protein Phosphatase 1B), endogenous (enzyme, UniProt O75688 1-479)
chain: MGAFLDKPKTEKHNAHGAGNGLRYGLSSMQGWRVEMEDAHTAVVGIPHGLEDWSFFAVYDGHAGSRVANYCSTHLLEHITTNEDFRAAGKSGSALELSVENVKNGIRTGFLKIDEYMRNFSDLRNGMDRSGSTAVGVMISPKHIYFINCGDSRAVLYRNGQVCFSTQDHKPCNPREKERIQNAGGSVMIQRVNGSLAVSRALGDYDYKCVDGKGPTEQLVSPEPEVYEILRAEEDEFIILACDGIWDVMSNEELCEYVKSRLEVSDDLENVCNWVVDTCLHKGSRDNMSIVLVCFSNAPKVSDEAVKKDSELDKHLESRVEEIMEKSGEEGMPDLAHVMRILSAENIPNLPPGGGLAGKRNVIEAVYSRLNPHRESDGASDEAEESGSQGKLVEALRQMRINHRGNYRQLLEEMLTSYRLAKVEGEESPAEPAATATSSNSDAGNPVTMQESHTESESGLAELDSSNEDAGTKMSGEKI

By UniProt entry, the sequences of proteins in these tests, tags left out.
UniProt P37231: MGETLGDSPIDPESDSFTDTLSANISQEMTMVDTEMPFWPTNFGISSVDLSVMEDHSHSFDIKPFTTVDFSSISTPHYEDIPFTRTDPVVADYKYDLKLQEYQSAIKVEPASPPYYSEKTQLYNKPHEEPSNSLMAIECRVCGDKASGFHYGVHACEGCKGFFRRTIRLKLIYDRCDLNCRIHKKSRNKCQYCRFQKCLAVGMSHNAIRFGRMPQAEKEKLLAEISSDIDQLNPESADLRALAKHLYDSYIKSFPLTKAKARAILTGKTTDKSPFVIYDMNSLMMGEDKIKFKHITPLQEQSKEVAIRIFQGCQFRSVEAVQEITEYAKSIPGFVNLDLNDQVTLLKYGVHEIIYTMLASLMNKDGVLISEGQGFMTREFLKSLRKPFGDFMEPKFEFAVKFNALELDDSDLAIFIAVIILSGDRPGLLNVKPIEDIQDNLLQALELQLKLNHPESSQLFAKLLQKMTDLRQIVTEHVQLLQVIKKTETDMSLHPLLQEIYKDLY
UniProt Q9NXV2: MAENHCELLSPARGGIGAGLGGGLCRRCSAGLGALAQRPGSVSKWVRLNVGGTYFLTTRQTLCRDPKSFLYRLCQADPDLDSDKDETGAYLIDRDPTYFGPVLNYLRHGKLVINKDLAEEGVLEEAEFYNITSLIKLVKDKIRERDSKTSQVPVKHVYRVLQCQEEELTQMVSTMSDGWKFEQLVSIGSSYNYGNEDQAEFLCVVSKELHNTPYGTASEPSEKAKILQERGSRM
UniProt Q9Y2H1: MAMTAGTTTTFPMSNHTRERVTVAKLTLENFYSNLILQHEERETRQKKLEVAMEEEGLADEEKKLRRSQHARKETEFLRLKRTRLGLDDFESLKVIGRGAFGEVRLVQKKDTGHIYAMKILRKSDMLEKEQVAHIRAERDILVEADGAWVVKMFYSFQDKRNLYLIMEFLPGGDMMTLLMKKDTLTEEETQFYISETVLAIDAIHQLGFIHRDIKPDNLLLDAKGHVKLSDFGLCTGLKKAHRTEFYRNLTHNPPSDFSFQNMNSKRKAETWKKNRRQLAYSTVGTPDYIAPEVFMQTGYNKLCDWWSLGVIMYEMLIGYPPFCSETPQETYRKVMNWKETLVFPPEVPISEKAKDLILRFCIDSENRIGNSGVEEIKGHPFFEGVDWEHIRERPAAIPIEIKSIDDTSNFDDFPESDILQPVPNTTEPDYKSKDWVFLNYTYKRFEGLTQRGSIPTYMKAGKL
UniProt Q15208: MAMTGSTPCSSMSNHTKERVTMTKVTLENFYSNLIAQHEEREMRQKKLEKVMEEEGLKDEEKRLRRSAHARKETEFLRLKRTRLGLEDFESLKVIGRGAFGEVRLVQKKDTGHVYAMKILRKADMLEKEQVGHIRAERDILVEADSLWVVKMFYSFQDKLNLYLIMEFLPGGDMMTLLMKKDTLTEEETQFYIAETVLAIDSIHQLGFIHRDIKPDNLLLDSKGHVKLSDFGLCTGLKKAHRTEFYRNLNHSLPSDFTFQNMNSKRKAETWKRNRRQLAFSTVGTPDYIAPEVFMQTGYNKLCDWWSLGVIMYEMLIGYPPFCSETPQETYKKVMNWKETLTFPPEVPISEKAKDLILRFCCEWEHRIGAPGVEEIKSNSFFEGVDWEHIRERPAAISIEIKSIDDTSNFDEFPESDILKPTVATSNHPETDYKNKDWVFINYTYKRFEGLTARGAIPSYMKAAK

These molecules were tested against Flag-PPARγ (peroxisome proliferator-activated receptor-γ), expressed by lentivirus in human preadipocytes (UniProt P37231) (assay: affinity purification with mass spectrometry; Flag-tagged baits expressed by lentivirus in human preadipocytes, cells treated with rosiglitazone (1 µM) and insulin (70 nM) for 24 h; lysis in 50 mM Tris pH 7.5, 150 mM NaCl, 1% NP 40, 0.25% sodium deoxycholate, 10% glycerol, 1 mM EGTA; anti-Flag M2 magnetic beads overnight at 4°C, wash with 250 mM NaCl, elution with Flag peptide, LC-tandem mass spectrometry; three independent experiments).

binding, binds:
BTB/POZ domain-containing protein KCTD5 (Potassium Channel Tetramerization Domain Containing 5), endogenous (from UniProt Q9NXV2 1-234)
STK38-like protein (STK38L), endogenous (from UniProt Q9Y2H1 1-464) (enzyme)
serine/threonine-protein kinase 38 (STK38), endogenous (from UniProt Q15208 1-465) (enzyme)
B1

Reference: paper PMC8726646
